Measurements reported in PubChem BioAssay AID1671195 (Yale University, 2021)

- Screen: 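Knockdowns that increase or decrease uptake of fluorescent LDL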 (primary screen)
- Cells: human Huh7 hepatoma cells
- Reagents: siRNA pool against human genes, 18 nM
- Duration: about 2 to 2.5 days of knockdown, then 8 h LDL uptake
- Treatment: DiI-labelled LDL at 30 µg/ml for 8 h, in lipoprotein-deficient serum medium
- Measured: 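Fluorescent LDL signal imaged in cells, scaled to the plate median, robust z-score for each replicate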
- Scale: robust z-score: higher = more LDL uptake after knockdown
- Call rule: 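a gene counts as active if at least two replicate z-scores exceed ±2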
Shown is a random part of about 22,000 deposited reagents. In the full data, about 1,510 (6.9%) are marked active. 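Active includes knockdowns raising or lowering LDL uptake; positive z-scores mean more uptake, negative mean less.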 Unmarked entries are inactive. Reagents against one gene are numbered here.

gene	pool no.	robust z-score, replicate 1	robust z-score, replicate 2	robust z-score, replicate 3
HS1BP3 (GeneID 64342)	1	-0.519	-0.81	-0.214
GDF10 (GeneID 2662)	1	0.754	0.67	1.01
SOX12 (GeneID 6666)	1	-1.81	-1.3	-1.86
ATF2 (GeneID 1386)	1	-0.909	-0.774	-0.669
LOC440840 (retired record) (GeneID 440840)	1	-2.13	-0.682	-0.912
MTG2 (GeneID 26164)	1	-2.13 (active)	-0.532	-1.82
WDR53 (GeneID 348793)	1	0.328	0.364	0.299
LOC440975 (retired record) (GeneID 440975)	1	1.12	1.31	1.14
LOC387897 (retired record) (GeneID 387897)	1	-1.44	-1.55	-1.21
ZNF503-AS2 (GeneID 100131213)	1	0.996	1.29	1.1
CPT2 (GeneID 1376)	1	-2.88	0.012	0.517
FAM86B3P (GeneID 286042)	1	0.321	0.509	-0.00332
LOC389129 (retired record) (GeneID 389129)	1	-0.284	-0.0985	-0.174
ADGRE5 (GeneID 976)	1	0.702	1.27	0.939
CFAP47 (GeneID 286464)	1	0.831	0.601	0.969
CFAP47 (GeneID 286464)	2	-0.604	-0.364	-0.389
RPL7AP32 (GeneID 133748)	1	0.204	-0.936	0.288
LOC442602 (retired record) (GeneID 442602)	1	-1.02	-1.16	-4.11
ARHGAP18 (GeneID 93663)	1	0.123	0.377	0.462
MMP16 (GeneID 4325)	1	-1.12	-0.584	-0.621
LTBR (GeneID 4055)	1	-1.12	-1.21	-0.664
FLJ46838 (retired record) (GeneID 440865)	1	0.363	0.304	0.515
LOC442074 (retired record) (GeneID 442074)	1	-1.21	-1.16	-1.17
APOBEC3A (GeneID 200315)	1	-1.1	-1.51	-1.4
WDR90 (GeneID 197335)	1	-1.13	-1.71	-1.28
WDR90 (GeneID 197335)	2	-1.21	-1.92	-1.66
LOC389437 (retired record) (GeneID 389437)	1	0.53	0.968	1.15
CTNNA2 (GeneID 1496)	1	-0.0759	0.493	0.746
LOC145414 (retired record) (GeneID 145414)	1	0.0949	-0.56	-0.146
SYCP3 (GeneID 50511)	1	0.203	1.63	0.638
CLDN18 (GeneID 51208)	1	1.56	2.08	1.73
RBPJL (GeneID 11317)	1	-0.615	-0.51	-1.02
ZNF613 (GeneID 79898)	1	3.33 (active)	2.36	2.66
SKA1 (GeneID 220134)	1	-0.799	-0.973	-1
RAB10 (GeneID 10890)	1	0.0734	0.0852	0.0288
SMARCA4 (GeneID 6597)	1	-0.916	-1.35	-1.04

Continued; the last 10 above are carried over.
gene	pool no.	robust z-score, replicate 1	robust z-score, replicate 2	robust z-score, replicate 3
LOC389437 (retired record) (GeneID 389437)	1	0.53	0.968	1.15
CTNNA2 (GeneID 1496)	1	-0.0759	0.493	0.746
LOC145414 (retired record) (GeneID 145414)	1	0.0949	-0.56	-0.146
SYCP3 (GeneID 50511)	1	0.203	1.63	0.638
CLDN18 (GeneID 51208)	1	1.56	2.08	1.73
RBPJL (GeneID 11317)	1	-0.615	-0.51	-1.02
ZNF613 (GeneID 79898)	1	3.33 (active)	2.36	2.66
SKA1 (GeneID 220134)	1	-0.799	-0.973	-1
RAB10 (GeneID 10890)	1	0.0734	0.0852	0.0288
SMARCA4 (GeneID 6597)	1	-0.916	-1.35	-1.04
ZNF420 (GeneID 147923)	1	1.5	1.36	2.11
SLC38A11 (GeneID 151258)	1	0.4	-0.143	0.0961
ETV2 (GeneID 2116)	1	-0.859	-0.62	-0.0445
LOC401068 (retired record) (GeneID 401068)	1	-0.316	1.08	-0.317
LOC400708 (retired record) (GeneID 400708)	1	0.322	0.659	0.432
DLG1 (GeneID 1739)	1	0.383	0.609	0.119
SSX2IP (GeneID 117178)	1	-0.0421	-0.306	-0.954
LOC440191 (retired record) (GeneID 440191)	1	0.21	-0.202	-0.219
ASS1P14 (GeneID 459)	1	-0.88	-0.802	-0.722
SLC35B2 (GeneID 347734)	1	-1.58	-1.51	-1.85
SPATA31A7 (GeneID 26165)	1	0.34	1.35	2.01
SPI1 (GeneID 6688)	1	0.298	0.631	-0.436
MATN3 (GeneID 4148)	1	-2.22 (active)	-1.92	-1.91
CHMP1A (GeneID 5119)	1	-1.16	-1.25	-0.938
LOC440171 (retired record) (GeneID 440171)	1	-1.66	-2.03	-1.44
KRT18P16 (GeneID 391827)	1	-0.436	0.15	0.274
SYT12 (GeneID 91683)	1	1.96 (active)	2.41	2.01
NBPF21P (GeneID 205655)	1	0.0176	-0.241	0.00753
SUCO (GeneID 51430)	1	-1.1	-0.452	-0.846
YTHDF2 (GeneID 51441)	1	2	1.85	1.79
CSRNP3 (GeneID 80034)	1	0.822	1.08	1.18
TRIM28 (GeneID 10155)	1	-0.71	-1.08	-0.902
OLAH (GeneID 55301)	1	0.532	-0.0445	0.123
ZFPM1 (GeneID 161882)	1	0.491	-0.295	-0.124
LPCAT1 (GeneID 79888)	1	-0.809	-1.12	-1.12
PELI3 (GeneID 246330)	1	-0.233	-0.89	-0.455
RRP8 (GeneID 23378)	1	-2 (active)	-0.0758	-2.38
LOC441353 (retired record) (GeneID 441353)	1	0.568	0.78	0.992
LOC442154 (retired record) (GeneID 442154)	1	-0.679	-0.868	-0.946
LOC150371 (retired record) (GeneID 150371)	1	-1.29	-1.66	-1.35
TIMCC (GeneID 84908)	1	0.246	0.18	0.203
ANKRD12 (GeneID 23253)	1	-0.346	-0.744	-0.248
ZNF335 (GeneID 63925)	1	-0.186	-0.331	-0.404
LINC02092 (GeneID 400620)	1	0.703	0.0375	0.476
AOC2 (GeneID 314)	1	-1.05	-0.44	-0.549
S100A4 (GeneID 6275)	1	1.56	2.06	1.53
FKBP8 (GeneID 23770)	1	0.28	0.435	0.617
KRT18P38 (GeneID 441133)	1	-0.471	-1.13	-1.1
PTPN4 (GeneID 5775)	1	1.2	1.52	1.75
LINC00485 (GeneID 283432)	1	-0.818	-0.815	-0.895
VIRMA (GeneID 25962)	1	1.33	0.0351	2.2
OR5H2 (GeneID 79310)	1	-0.567	-0.524	-0.157
GSG1L (GeneID 146395)	1	0.783	0.171	0.757
HTN1 (GeneID 3346)	1	-0.163	0.72	1.3
CASC3 (GeneID 22794)	1	1.52	-0.457	1.03
TONSL (GeneID 4796)	1	2.05 (active)	1.63	2.72
AQP10 (GeneID 89872)	1	1.07	0.519	0.528
KIAA0586 (GeneID 9786)	1	-0.448	-0.537	1.65
DNAJC17 (GeneID 55192)	1	0.524	1.05	0.971
LOC442275 (retired record) (GeneID 442275)	1	1.25	-0.14	0.575
DLGAP2 (GeneID 9228)	1	0.419	0.936	0.0616
